Measurements from paper doi:10.1101/2021.11.24.469949.
These are yes or no findings as the source states them, for the method shown. In cells and extracts the contact can be indirect. These calls come from enrichment with a bait or labelling near it, and not all partners need be listed. For some of these results: Where a sequence is shown, tags or fusion partners need not be part of it.

Legend:
Assay in all cases: affinity purification with mass spectrometry
[1] = target: ZPR1-tdTomato-3xFLAG (Arabidopsis)
[2] = target: T1, 3xFLAG tagged REV (Arabidopsis) (UniProt Q9SE43)
T1 sequence: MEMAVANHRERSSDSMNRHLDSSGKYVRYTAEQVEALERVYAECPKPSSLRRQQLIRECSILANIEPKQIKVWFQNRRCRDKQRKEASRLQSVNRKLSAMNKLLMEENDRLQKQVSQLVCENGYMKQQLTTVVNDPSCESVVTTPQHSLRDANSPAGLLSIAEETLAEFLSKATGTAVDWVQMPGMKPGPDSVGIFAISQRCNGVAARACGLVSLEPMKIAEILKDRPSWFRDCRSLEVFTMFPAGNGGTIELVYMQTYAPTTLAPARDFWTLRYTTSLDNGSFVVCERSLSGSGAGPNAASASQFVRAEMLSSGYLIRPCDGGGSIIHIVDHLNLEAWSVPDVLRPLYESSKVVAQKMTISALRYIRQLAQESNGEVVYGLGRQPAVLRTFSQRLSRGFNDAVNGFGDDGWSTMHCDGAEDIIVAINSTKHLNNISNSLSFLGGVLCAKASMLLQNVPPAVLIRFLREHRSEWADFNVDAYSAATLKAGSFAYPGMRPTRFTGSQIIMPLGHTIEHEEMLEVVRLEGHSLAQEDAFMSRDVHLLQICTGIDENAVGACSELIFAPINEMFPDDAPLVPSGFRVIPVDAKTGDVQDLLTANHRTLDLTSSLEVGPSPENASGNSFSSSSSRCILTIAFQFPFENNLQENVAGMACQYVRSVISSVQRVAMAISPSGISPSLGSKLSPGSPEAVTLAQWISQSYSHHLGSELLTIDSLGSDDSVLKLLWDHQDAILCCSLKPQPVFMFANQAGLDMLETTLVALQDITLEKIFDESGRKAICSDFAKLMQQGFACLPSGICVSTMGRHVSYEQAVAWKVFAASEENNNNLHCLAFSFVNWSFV

[3] = target: T2, 3xFLAG tagged PHB (Arabidopsis) (UniProt O04291)
T2 sequence: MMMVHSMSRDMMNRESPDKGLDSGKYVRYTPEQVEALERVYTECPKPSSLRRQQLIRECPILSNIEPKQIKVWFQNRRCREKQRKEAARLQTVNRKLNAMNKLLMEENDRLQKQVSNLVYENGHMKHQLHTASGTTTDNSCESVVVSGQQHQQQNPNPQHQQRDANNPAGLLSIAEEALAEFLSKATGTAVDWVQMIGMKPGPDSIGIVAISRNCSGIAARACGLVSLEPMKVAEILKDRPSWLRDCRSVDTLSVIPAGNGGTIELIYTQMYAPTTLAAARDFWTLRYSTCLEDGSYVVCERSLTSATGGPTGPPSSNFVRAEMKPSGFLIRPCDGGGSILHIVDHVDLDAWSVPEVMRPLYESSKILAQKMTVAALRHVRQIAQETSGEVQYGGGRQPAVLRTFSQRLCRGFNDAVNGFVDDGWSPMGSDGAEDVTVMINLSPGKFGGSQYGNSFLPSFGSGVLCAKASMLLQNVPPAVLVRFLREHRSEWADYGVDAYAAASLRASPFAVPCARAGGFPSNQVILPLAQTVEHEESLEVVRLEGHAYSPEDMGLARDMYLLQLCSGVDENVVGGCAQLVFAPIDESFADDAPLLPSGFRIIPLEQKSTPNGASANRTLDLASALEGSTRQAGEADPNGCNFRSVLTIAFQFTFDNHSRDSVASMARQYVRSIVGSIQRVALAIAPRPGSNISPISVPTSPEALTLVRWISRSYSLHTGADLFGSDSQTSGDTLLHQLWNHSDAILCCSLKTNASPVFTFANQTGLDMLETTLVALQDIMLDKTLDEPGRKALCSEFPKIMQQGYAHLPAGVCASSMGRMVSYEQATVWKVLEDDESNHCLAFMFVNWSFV

[4] = target: T3, ZPR2-tdTomato-3xFLAG (Arabidopsis) (UniProt Q9LZX5)
T3 sequence: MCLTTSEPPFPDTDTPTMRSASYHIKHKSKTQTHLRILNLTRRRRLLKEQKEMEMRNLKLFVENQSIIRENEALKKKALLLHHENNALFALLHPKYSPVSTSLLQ

B1: AT5G49020.1 (protein, UniProt A3KPF2 1-528)
chain: MEIPSLNKQQEFTLASVTDLTSPSSSLSSSPVVATFSCVNEVKELRFQESKSSDGFSFDLSSTQLFKLGPLQFTCVSDGSISSAKEKSSFSRGVVIKFRDEKDSKEFCDSFEECKKDDAVKQGSALPNGTVVSANKSKFDDKIEAASAKMYFHYYGQLLHQQNMLQDYVRTGTYHAAVMENRSDFSGRVVVDVGAGSGILSMFAALAGAKHVYAVEASEMAEYARKLIAGNPLLAERITVIKGKIEDIELPEKADVLISEPMGTLLVNERMLETYVIARDRFLSPNGKMFPTVGRIHMAPFADEFLFVEMANKALFWQQQNYYGVDLTPLYVSAHQGYFSQPVVDAFDPRLLVAPSMFHVIDFTMMTEEQFYEIDIPLKFTASVCTRIHGLACWFDVLFDGSTVQRWFTTAPGAPTTHWYQIRCVLSQPIHVMAGQEITGRLHLIAHSAQSYTINLTLSAKMWGPGANQGGILQTSSCKLDLKEPYYRMSQPQVYPTQEPPAQSQDIHIHSDDLEELELLQQNANAQL
Q: With B1 as the binder, how does the binding [1] read?
A: binds

B2: CORONA/ATHB15 (CNA) (protein, UniProt Q9ZU11 1-836)
chain: MAMSCKDGKLGCLDNGKYVRYTPEQVEALERLYHDCPKPSSIRRQQLIRECPILSNIEPKQIKVWFQNRRCREKQRKEASRLQAVNRKLTAMNKLLMEENDRLQKQVSQLVHENSYFRQHTPNPSLPAKDTSCESVVTSGQHQLASQNPQRDASPAGLLSIAEETLAEFLSKATGTAVEWVQMPGMKPGPDSIGIIAISHGCTGVAARACGLVGLEPTRVAEIVKDRPSWFRECRAVEVMNVLPTANGGTVELLYMQLYAPTTLAPPRDFWLLRYTSVLEDGSLVVCERSLKSTQNGPSMPLVQNFVRAEMLSSGYLIRPCDGGGSIIHIVDHMDLEACSVPEVLRPLYESPKVLAQKTTMAALRQLKQIAQEVTQTNSSVNGWGRRPAALRALSQRLSRGFNEAVNGFTDEGWSVIGDSMDDVTITVNSSPDKLMGLNLTFANGFAPVSNVVLCAKASMLLQNVPPAILLRFLREHRSEWADNNIDAYLAAAVKVGPCSARVGGFGGQVILPLAHTIEHEEFMEVIKLEGLGHSPEDAIVPRDIFLLQLCSGMDENAVGTCAELIFAPIDASFADDAPLLPSGFRIIPLDSAKEVSSPNRTLDLASALEIGSAGTKASTDQSGNSTCARSVMTIAFEFGIESHMQEHVASMARQYVRGIISSVQRVALALSPSHISSQVGLRTPLGTPEAQTLARWICQSYRGYMGVELLKSNSDGNESILKNLWHHTDAIICCSMKALPVFTFANQAGLDMLETTLVALQDISLEKIFDDNGRKTLCSEFPQIMQQGFACLQGGICLSSMGRPVSYERAVAWKVLNEEENAHCICFVFINWSFV
Q: Which binding [2] does the source give for B2 here?
A: binds

Q: What about the binding [3] of the same binder?
A: binds

B3: PRMT4B (AT3G06930.2) (protein, UniProt Q84W92 1-535)
chain: MEVSSVKKLEQLEYSLESVTDLSSSSVSSSSPAVATFSYVDGVTELRFLQSDSTHCFNFDLASAQLFKLGPVHFICVSDGSSSSEEKSFSKGVNIKFKNEKDSKDFCESFEEWRNDSVVQGSSLQNGTVSANKSKFDNKIEASSAKMYFHYYGQLLHQQNMLQDYVRTGTYYAAVMENHSDFAGRVVVDVGAGSGILSMFAAQAGAKHVYAVEASEMAEYARKLIAGNPLFADRITVIKGKVEDIELPEKADILISEPMGTLLVNERMLESYVIARDRFMTPKGKMFPTVGRIHMAPFSDEFLFIEMANKAMFWQQQNYYGVDLTPLYGSAHQGYFSQPVVDAFDPRLLVASPMFHMIDFTQMKEEDFYEIDIPLKFTASMCTRMHGLACWFDVLFDGSTVQRWLTTAPGAPTTHWYQIRCVLSQPIYVMAGQEITGRLHLIAHSAQSYTIDLTLSAKMWGPGASQGGILQSSTCKFDLKEPYYRMSQPQAYPVAQEPPLQPQPELSTQQDIQTPNDELEEELLQQLPQNPSAQL
Q: Which binding [1] does the source give for B3 here?
A: binds

B4: VIP3 (AT4G29830.1) (protein, UniProt Q9SZQ5 1-321)
chain: MKLAGLKSIENAHEDSVWAATWVPATEDRPALLLTGSLDETVKLWRPDELDLVRTNTGHSLGVAALAAHPSGIIAASSSIDSFVRVFDVDTNATIAVLEAPPSEVWGMQFEPKGTILAVAGGSSASVKLWDTASWRLISTLSIPRPDAPKPSDKTSSKKFVLSVAWSPNGKRLACGSMDGTICVFDVDRSKLLHQLEGHNMPVRSLVFSPVDPRVLFSGSDDGHVNMHDAEGKTLLGSMSGHTSWVLSVDASPDGGAIATGSSDRTVRLWDLKMRAAIQTMSNHNDQVWSVAFRPPGGTGVRAGRLASVSDDKSVSLYDYS
Q: Which binding [4] does the source give for B4 here?
A: binds

B5: AT2G30620.1 (protein, UniProt P26569 1-273)
chain: MSIEEENVPTTVDSGAADTTVKSPEKKPAAKGGKSKKTTTAKATKKPVKAAAPTKKKTTSSHPTYEEMIKDAIVTLKERTGSSQYAIQKFIEEKHKSLPPTFRKLLLVNLKRLVASEKLVKVKASFKIPSARSAATPKPAAPVKKKATVVAKPKGKVAAAVAPAKAKAAAKGTKKPAAKVVAKAKVTAKPKAKVTAAKPKSKSVAAVSKTKAVAAKPKAKERPAKASRTSTRTSPGKKVAAPAKKVAVTKKAPAKSVKVKSPAKRASTRKAKK
Q: With B5 as the binder, how does the binding [4] read?
A: binds

B6: ZPR3 (endogenous) (protein, UniProt Q9LXI8 1-67)
chain: MERLNSKLFVENCYIMKENERLRKKAELLNQENQQLLFQLKQKLSKTKNSNNGSNNDNKSSSASGQS
Q: Which binding [2] does the source give for B6 here?
A: binds

B7: ZPR4 (endogenous) (protein, UniProt Q56WL5 1-72)
chain: MERLNSKLYLQNCYIIKENERLRKKAQILNQENQQLLFELKQKLSKTKNSSGSNQGNNNNNNNLSSSSSASG
Q: What does the source list for B7?
A: binding [2]: binds; binding [3]: binds

B8: FKBP53 (AT4G25340.1) (protein, UniProt Q93ZG9 1-477)
chain: MGFWGLEVKPGKPQAYNPKNEQGKIHVTQATLGTGLSKEKSVIQCSIGDKAPIALCSLLPNKIECCPLNLEFDDDDEPVEFTVTGDRSIHLSGFLEYYQDDEDDYEHDEDDSDGIDVGESEEDDSCEYDSEEDEQLDEFEDFLDSNLERYRNAAAPKSGVIIEEIEDEEKPAKDNKAKQTKKKSQASEGENAKKQIVAIEGAHVPVLESEDEDEDGLPIPKGKSSEVENASGEKMVVDNDEQGSNKKRKAKAAEQDDGQESANKSKKKKNQKEKKKGENVLNEEAGQVQTGNVLKKQDISQISSNTKAQDGTANNAMSESSKTPDKSAEKKTKNKKKKKPSDEAAEISGTVEKQTPADSKSSQVRTYPNGLIVEELSMGKPNGKRADPGKTVSVRYIGKLQKNGKIFDSNIGKSPFKFRLGIGSVIKGWDVGVNGMRVGDKRKLTIPPSMGYGVKGAGGQIPPNSWLTFDVELINVQ
Q: Which binding [4] does the source give for B8 here?
A: binds
